Results on one substance are retold here after PMC11681593.

These are yes or no findings as the source states them, for the method shown. In cells and extracts the contact can be indirect. Binding calls can cover weak binding; strength is not graded here.

For the assay, the target named is T1, thioredoxin-interacting protein (TXNIP), mouse heart (mouse (endogenous in heart tissue)) (UniProt Q8BG60).
T1 sequence: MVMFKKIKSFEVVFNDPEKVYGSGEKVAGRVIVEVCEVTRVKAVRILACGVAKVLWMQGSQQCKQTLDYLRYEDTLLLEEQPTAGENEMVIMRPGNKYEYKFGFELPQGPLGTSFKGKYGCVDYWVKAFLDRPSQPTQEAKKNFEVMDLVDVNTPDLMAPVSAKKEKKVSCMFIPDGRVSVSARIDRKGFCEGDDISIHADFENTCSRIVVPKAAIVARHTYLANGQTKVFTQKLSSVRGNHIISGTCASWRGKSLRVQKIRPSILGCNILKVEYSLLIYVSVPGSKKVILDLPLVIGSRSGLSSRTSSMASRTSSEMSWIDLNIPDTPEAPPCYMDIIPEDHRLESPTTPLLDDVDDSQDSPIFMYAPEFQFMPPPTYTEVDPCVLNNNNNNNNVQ
Description: co-IP; endogenous co-immunoprecipitation from mouse heart tissue lysate with TXNIP antibody, immunoblot for NLRP3, TXNIP and thioredoxin; mice on ND or HFD for 24 wks, with rAAV9-cTnT-null or rAAV9-cTnT-TXNIP (Figure S5I), or with NS or MitoTEMPO (Figure 7I).

thioredoxin (TRX), mouse heart: the binding result was “binds”.
